Measured values from PubChem BioAssay AID2685 (National Center for Advancing Translational Sciences (NCATS), 2010).
The other results are listed elsewhere or left out. Shown are side measurements of this screen, not its main read-out; they come without a call. Compounds called inactive in the main read-out are mostly missing here. Words in brackets tell the shape of the fitted curve; partial curves, single points and poor fits give uncertain potencies.

Test: qHTS Assay for Lipid Storage Modulators in Drosophila S3 Cells;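 for cell number change: cells counted by Cell Tracker Red CMTPX staining in the red channel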
Settings: BODIPY lipid droplet fluorescence, 18-24 h; for cell number change: measured here: cell count max response, cells fed with added oleic acid
Procedure, shortened: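 Drosophila S3 cells loaded with oleic acid (400 uM, as added) and compounds at several concentrations; lipid droplets imaged by 488-nm laser-scanning cytometry, 500–530 nm intensity and object ratio to cell channel. Percent activity normalized to 20 uM Triacsin C.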

[1] = measured here: lipid fluorescence (Fed channel) AC50, cells fed with added oleic acid
[2] = measured here: cell number channel AC50, cells fed with added oleic acid

| Compound | cell number change | AC50 [1] | AC50 [2] |
| --- | --- | --- | --- |
| COc1ccc(NC(=O)c2ccc(OCC3CCCO3)cc2)cc1OC (stereo not drawn) | -1.3% | 0.231 µM [rising, full curve, poor fit] |  |
| COc1cc(NC(=O)COc2ccccc2C)ccc1NC(=O)c1ccco1 | 30.9% | 18.4 µM [falling, single point] | 29.1 µM [rising, single point] |
| CCc1ccc(NC(=O)Cn2c(=O)n(CCCC(=O)NCc3ccco3)c(=O)c3ccccc32)cc1 | -43.8% |  | 18.4 µM [falling, single point] |
| CC(Sc1nnc(-c2ccc(C(C)(C)C)cc2)n1C)C(N)=O (stereo not drawn) | -9.68% |  |  |
| CCOc1ccc(NS(=O)(=O)c2ccc(C)c(C(N)=O)c2)cc1 | -18.5% | 0.517 µM [falling, partial curve, poor fit] |  |
| O=C1CC(N2CCN(c3ccc(C(=O)c4ccc(F)cc4)cc3)CC2)C(=O)N1 (stereo not drawn) | -1.01% |  |  |
| CCc1cccc(NC(=O)CCCn2c(=O)[nH]c3ccsc3c2=O)c1 | 20.6% |  | 0.411 µM [falling, single point] |
| COc1cccc(C2=NNC(=NCc3ccccc3)SC2)c1 | 4.4% |  |  |
| Cc1cccc(C)c1NC(=O)CSc1nnnn1-c1ccc(C(=O)O)cc1 | 0.0585% |  |  |
| CC(Oc1ccc(F)cc1)C(=O)Nc1cc(S(=O)(=O)N2CCOCC2)ccc1N1CCN(C)CC1 (stereo not drawn) |  |  | 0.103 µM [rising, full curve, poor fit] |
| O=C(O)C1CCCCC1C(=O)Nc1ccc(S(=O)(=O)N2CCCCC2)cc1 (stereo not drawn) | 17.9% | 0.116 µM [rising, single point] |  |
| O=C(NCc1ccc(F)cc1)C(Cc1ccccc1)n1cccc1 (stereo not drawn) | -16.6% | 0.731 µM [falling, full curve] |  |
| Cc1cc2ccccc2nc1SCC(=O)NC1CCCC1 | 2.46% |  |  |
| Cc1cc(Br)cc(Br)c1OCC(=O)NNC(=O)c1ccoc1C |  | 20.6 µM [rising, single point] |  |
| O=C1OC(N2CCN(C(=O)c3ccco3)CC2)c2ccccc21 (stereo not drawn) | -7.9% |  |  |
| COC(=O)c1c(NC(=O)CN2C(=O)c3ccccc3C2=O)sc(Cc2ccc3c(c2)OCO3)c1C | 3.66% | 1.64 µM [rising, full curve] |  |
| O=C(COc1ccc(C(=S)N2CCC(Cc3ccccc3)CC2)cc1)N1CCOCC1 | 20.8% | 0.1 µM [rising, full curve, poor fit] |  |
| COc1cccc(C(=O)N2N=C(c3cccc(OC)c3)CC2(O)C(F)(F)F)c1 (stereo not drawn) | -2.87% | 0.461 µM [falling, single point] |  |
| CC(=O)N1CCCc2cc(S(=O)(=O)N3CCCC(C(=O)N4CCN(c5cc(C)ccc5C)CC4)C3)ccc21 (stereo not drawn) | -19.6% |  |  |
| C/C=C/c1ccc(OCCCNC(C)CC)c(OC)c1 (stereo not drawn) | -36.2% | 29.1 µM [falling, single point] | 8.2 µM [falling, partial curve] |
| Cc1csc(NC(=O)CN2C(=O)c3ccccc3S2(=O)=O)n1 | 18.4% | 0.731 µM [rising, full curve] |  |

Random excerpt: 2 records from the list

| Compound | cell number change | AC50 [1] | AC50 [2] |
| --- | --- | --- | --- |
| Cc1cc(Br)cc(Br)c1OCC(=O)NNC(=O)c1ccoc1C |  | 20.6 µM [rising, single point] |  |
| COc1ccc(NC(=O)c2ccc(OCC3CCCO3)cc2)cc1OC (stereo not drawn) | -1.3% | 0.231 µM [rising, full curve, poor fit] |  |

Individual results from the list.
In AC50 [1], `CCOc1ccc(NS(=O)(=O)c2ccc(C)c(C(N)=O)c2)cc1` reads 0.517 µM [falling, partial curve, poor fit]
In cell number change, `COc1cccc(C2=NNC(=NCc3ccccc3)SC2)c1` reads 4.4%

Next part:

| Compound | cell number change | AC50 [1] | AC50 [2] |
| --- | --- | --- | --- |
| COc1ccc(C(=O)Nc2ccc(S(=O)(=O)N3CCCC3)cc2)cc1[N+](=O)[O-] | -26.3% | 0.891 µM [falling, full curve] |  |
| COc1ccc(Cl)cc1C(=O)NNC(=O)c1ccncc1 | 20.4% |  |  |
| COc1ccc(CN2CCNC(=O)C2CC(=O)NCCSc2nccn2C)cc1OC (stereo not drawn) | 15.7% | 29.1 µM [falling, single point] |  |
| Cc1ccsc1C(=O)OCC(=O)NCc1ccco1 | -2.97% | 0.651 µM [rising, single point] |  |
| Cc1cc(C)cc(C(=O)NC(=S)Nc2ccc3[nH]c(=O)[nH]c3c2)c1 | 54.4% | 10.3 µM [rising, partial curve] |  |
| COc1cccc(C2(c3cccc(OC)c3)CC2C(=O)Nc2ccccc2Cl)c1 (stereo not drawn) | -15.1% | 20.6 µM [falling, single point] |  |
| CC(OC(=O)c1ccc(Cl)nc1)C(=O)Nc1ccc(S(=O)(=O)N2CCCC2)cc1 (stereo not drawn) |  | 25.9 µM [falling, single point] | 2.06 µM [rising, partial curve, poor fit] |
| O=C(CN1C(=O)CSc2ncccc21)Nc1cccc(Cl)c1 | 11% | 1.46 µM [rising, partial curve] |  |
| CC1(c2nnc(-c3ccc(Cl)cc3)o2)CC(c2cccc(Cl)c2)=NO1 (stereo not drawn) | 3.12% |  |  |
| O=C1CSC(c2cn(-c3ccccc3)nc2-c2cc3ccccc3oc2=O)N1Cc1ccco1 (stereo not drawn) | -13.1% | 1.64 µM [falling, partial curve] |  |
| CC(=O)Nc1ccc(NC(=O)c2ccc(C)c(S(=O)(=O)Nc3cccc(C)c3)c2)cc1 | 5.44% | 29.1 µM [falling, single point] |  |
| CC(C)(C)C(=O)/C(C#N)=c1\s/c(=C\c2ccncc2)c(=O)n1CCCN1CCOCC1 | 1.56% | 0.13 µM [rising, full curve, poor fit] |  |
| COc1cc(OC)cc(N(C(=O)CNC(=O)c2cccs2)C(C(=O)NCC2CCCO2)c2ccccc2)c1 (stereo not drawn) | -15.2% | 0.206 µM [falling, single point] |  |
| CCN(CC(=O)Nc1ccc(OC)cc1)C(=O)c1cc(-c2cccs2)nn1-c1ccccc1 | 47.1% |  | 14.6 µM [rising, single point] |
| CCOc1ccc(N=Cc2c(C)[nH]n(-c3nc4ccccc4[nH]3)c2=O)cc1 | -29.5% | 29.1 µM [falling, single point] |  |
| Oc1ccccc1OCc1nc2ccccc2s1 | -3.43% | 0.116 µM [falling, full curve, poor fit] |  |
| O=C(CSc1ccc2nnc(-c3ccccn3)n2n1)Nc1ccccc1C(F)(F)F | 6.93% |  |  |
| CN(C)S(=O)(=O)c1ccc(C(=O)/C=C/c2cccnc2)cc1 |  | 0.291 µM [falling, full curve] |  |
| Cc1ccc(OCC(=O)NCc2ccc3c(c2)OCO3)c([N+](=O)[O-])n1 | 128% | 2.59 µM [rising, partial curve] | 20.6 µM [rising, single point] |
| NS(=O)(=O)c1ccc2c(c1)C1C=CCC1C(C1CC=CCC1)N2 (stereo not drawn) | -18.4% | 8.2 µM [falling, partial curve] |  |
| CCOC(=O)CC1C(=O)NCCN1c1nc2c(C)cccn2c(=O)c1/C=C1\SC(=S)N(C(C)CC)C1=O (stereo not drawn) | -97.1% | 14.6 µM [falling, partial curve, poor fit] | 3.26 µM [falling, full curve] |

| Compound | cell number change | AC50 [1] | AC50 [2] |
| --- | --- | --- | --- |
| N/C(=N\c1nc2ccccc2o1)NC(=O)c1ccccc1 |  | 4.11 µM [rising, partial curve] | 6.51 µM [rising, single point] |
| CC(=O)Nc1nc(-c2ccc3ccccc3c2)cs1 | 34.7% |  | 29.1 µM [rising, single point] |
| O=C(Nc1cccc(S(=O)(=O)Nc2ccc(Cl)cc2)c1)c1ccc(Cl)nc1 | -50.2% | 7.31 µM [falling, partial curve] | 10.3 µM [falling, partial curve] |
| Cc1nn(CC(C)C)c(Cl)c1C(=O)N(c1ccc(Cl)cc1F)S(C)(=O)=O | 16.1% |  |  |
| CCOC(=O)CNS(=O)(=O)c1ccc2c3c(cccc13)C(=O)N2CC | 1.49% | 29.1 µM [rising, single point] |  |
| O=S(=O)(c1ccc(Br)cc1)N1CCOC12CCCCC2 | -8.92% |  |  |
| COCC(=O)OCC(=O)Nc1cc([N+](=O)[O-])ccc1Cl | 44.4% | 18.4 µM [rising, single point] | 8.2 µM [rising, partial curve] |
| CN(c1ccccc1)S(=O)(=O)c1ccc(Cl)c(C(=O)OCC(N)=O)c1 | -11.5% |  |  |
| COc1ccc(Cl)cc1N(CC(=O)NC1CC2CCC1C2)S(=O)(=O)c1ccccc1 (stereo not drawn) | -8.8% |  |  |
| Cn1c(SCC(=O)NCC2CCCO2)ncc(C(=O)Nc2ccc(Cl)cc2)c1=O (stereo not drawn) | -5% |  |  |
| N#CCCN(C(=O)COC(=O)c1cc(S(=O)(=O)N2CCOCC2)ccc1Cl)c1ccc(F)cc1 | -17.5% | 29.1 µM [rising, single point] |  |
| Cc1ccc(NC(=O)CCCc2c[nH]c3ccccc23)nc1 | 34% |  | 35.5 µM [rising, partial curve] |
| O=C(CCn1c(=O)oc2ccccc21)NCCCN1CCOCC1 | 4.35% | 0.651 µM [falling, partial curve, poor fit] |  |
| Cc1ccc(/C=C/c2onc(C)c2S(=O)(=O)N2CCC(C(=O)N3CCCCC3)CC2)cc1 | 0.816% | 29.1 µM [falling, single point] |  |
| Cc1ccc(S(=O)(=O)N2CCC(C(=O)NCCCN3CCOCC3)CC2)cc1 | -2.66% | 8.2 µM [rising, partial curve] |  |
| O=C(O)CSc1ncccn1 | -43% | 0.517 µM [falling, full curve] | 5.17 µM [falling, full curve] |
| CO[C@H]1[C@@H]2C=CO[C@@H](O[C@H]3O[C@@H](CO)[C@H](O)[C@@H](O)[C@@H]3O)[C@@H]2[C@@]2(CO)O[C@@H]12 | 3.37% | 0.259 µM [falling, single point] |  |
| Cn1cc(C(=O)N2CCN(C(=O)c3ccco3)CC2)c2c3ccccc3n(C)c2c1=O | 25.2% |  |  |
| N#CCCn1cc(C(=O)Nc2cccc(C(=O)O)c2)c(-c2ccc(Cl)cc2)n1 | 10.2% | 29.1 µM [rising, single point] |  |
| CC(C)c1ccc(N(CC(=O)N2CCOCC2)S(C)(=O)=O)cc1 | 4.53% |  |  |
| CCOc1ccc(Cn2cc(F)c(=O)[nH]c2=O)cc1 | 33.5% |  | 16.4 µM [rising, partial curve, poor fit] |
